Data as given in PubChem BioAssay AID504808 (Drosophila RNAi Screening Center, 2011)

Test: 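Fly genes required to hold E2F transcription in check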 (primary screen)
Cells: Drosophila S2 cells
Reagent: long dsRNA against Drosophila genes
Measurement: 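Firefly luciferase driven by E2F sites, normalised to Renilla luciferase on the same minimal promoter, measured by plate reader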
Scale: E2F firefly: higher = more E2F reporter activity; Renilla normaliser: higher = more normaliser reporter signal
Rule for the call: 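Called active if the normalised E2F reporter went up by over 50%; the cutoff is arbitrary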
In all, the deposit lists about 21,000 reagents; below is a random part of those with a known target gene and a result. Of all reagents, 18 (0.084%) got an active call. 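Raw counts without plate normalisation, one of two replicates; the ratio scores behind the calls were not deposited.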 The numbers tell different reagents against one gene apart. Names joined by + are all predicted targets of the reagent. Reagent sequences are not shown. The record does not give: the amount of reagent, the time to read-out.

gene	reagent	E2F firefly, rep 1	Renilla normaliser, rep 1	call
nxf4	1	1.26e5	5987	inactive
Adck5	1	1.26e5	6917	inactive
CG18586	1	93542	3931	inactive
fzy	1	79583	3980	inactive
MFS10	1	8049	716	inactive
Wdr33	1	69043	3273	inactive
Dyro	1	1.08e5	6256	inactive
Ada2b	1	1.19e5	7254	inactive
CG30271	1	99747	4462	inactive
CG12436 (retired record)	1	1.73e5	8065	inactive
CG12436 (retired record)	2	1.68e5	7737	inactive
CG10062	1	75002	3302	inactive
CR31292	1	84255	2939	inactive
CG31871	1	1.50e5	4978	inactive
CG31871	2	1.75e5	5186	inactive
CG13795	1	1.45e5	4863	inactive
CG12857	1	99013	4541	inactive
prage	1	87624	4322	inactive
prage	2	1546	868	inactive
prage	3	96244	5705	inactive
prage	4	1.25e5	5864	inactive
PIG-F	1	1.45e5	6409	inactive
odd	1	1.16e5	110	inactive
CG14817	1	1.20e5	5495	inactive
Bet1	1	1.36e5	6988	inactive
CG6441	1	1.56e5	5464	inactive
tkv + CR14033 + tRNA:Asp-GTC-2-1 + 1 more	1	1.35e5	5095	inactive
CG14309	1	1.46e5	7506	inactive
CG11726	1	1.31e5	6443	inactive
CG4630	1	118	29	inactive
CG1024	1	1.38e5	6853	inactive
peb	1	44444	3379	inactive
snama	1	71334	3306	inactive
AP-1sigma	1	69102	3083	inactive
ppk31	1	91565	3054	inactive
CG6966	1	1.10e5	6624	inactive
Hr38	1	93896	3433	inactive
CG8927	1	1.12e5	6529	inactive
kto	1	80133	3194	inactive
Neurl4	1	72648	3497	inactive
PIP5K59B	1	59398	3524	inactive
PIP5K59B	2	99505	4086	inactive
elav	1	1930	844	inactive
Drep4	1	90236	3859	inactive
CG13323	1	1.03e5	3984	inactive
ear	1	53306	3022	inactive
Spc105R	1	93912	8612	inactive
spo	1	87653	4208	inactive
Ent1	1	86811	4112	inactive
mtSSB	1	1.24e5	6912	inactive
CG10195	1	96931	4103	inactive
Ser7	1	7743	776	inactive
CR14499 (retired record)	1	1.40e5	4826	inactive
Ero1L	1	71340	3783	inactive
CG3457	1	2022	1016	inactive
Pvr	1	93884	3971	inactive
CG10996	1	1.39e5	4854	inactive
eIF2Bbeta	1	90247	4497	inactive
CG17816	1	1.34e5	5512	inactive
papi	1	81147	3677	inactive
RpS3	1	43609	6140	inactive
SA1	1	1.10e5	3956	inactive

No new results follow: an excerpt of the list.
gene	reagent	E2F firefly, rep 1	Renilla normaliser, rep 1	call
ear	1	53306	3022	inactive
Spc105R	1	93912	8612	inactive
spo	1	87653	4208	inactive
Ent1	1	86811	4112	inactive
mtSSB	1	1.24e5	6912	inactive
CG10195	1	96931	4103	inactive
Ser7	1	7743	776	inactive
CR14499 (retired record)	1	1.40e5	4826	inactive
Ero1L	1	71340	3783	inactive
CG3457	1	2022	1016	inactive
Pvr	1	93884	3971	inactive
CG10996	1	1.39e5	4854	inactive
eIF2Bbeta	1	90247	4497	inactive
CG17816	1	1.34e5	5512	inactive
papi	1	81147	3677	inactive

Continued.
gene	reagent	E2F firefly, rep 1	Renilla normaliser, rep 1	call
CG4716	1	2946	193	inactive
Gpb5	1	72494	5023	inactive
Oseg6	1	1.44e5	5132	inactive
wrd	1	60670	4487	inactive
wrd	2	1.52e5	7866	inactive
Nagk	1	81443	3797	inactive
CG34005	1	1.56e5	5896	inactive
Galphas	1	88628	3552	inactive
Hil	1	67066	3498	inactive
Hil	2	84455	3857	inactive
Sf3b2	1	69033	4182	inactive
rols	1	1.04e5	6769	inactive
rols	2	1.43e5	7140	inactive
rols	3	1.22e5	7015	inactive
CG34328	1	87109	3074	inactive
CG5805	1	70049	3432	inactive
CG15344 (retired record)	1	1.08e5	5355	inactive
Atg17	1	1.49e5	6667	inactive
CG4239	1	7829	784	inactive
serp	1	1.36e5	7566	inactive
serp	2	1.43e5	7185	inactive
Mms19	1	75406	3553	inactive
Vps8	1	85397	3868	inactive
CG13068	1	1.54e5	7965	inactive
Sf3b6	1	85021	3946	inactive
LysD + LysB + LysC (retired record)	1	1.40e5	6099	inactive
Chrac-16	1	97935	6448	inactive
Gk1	1	78242	3427	inactive
Gk1	2	1.05e5	4513	inactive
Pgam5-2	1	1.20e5	4570	inactive
CG13086	1	97521	3620	inactive
Pkn	1	2967	166	inactive
Pkn	2	1.51e5	5105	inactive
ms(2)34Fe	1	97210	4326	inactive
COX4L	1	1.10e5	4418	inactive
CG34423 + Mthfs	1	1.08e5	4577	inactive
CG30395	1	1.28e5	5351	inactive
CG34227	1	86213	3962	inactive
CG34227	2	1.07e5	4657	inactive
Men-b	1	1.19e5	6014	inactive
Dscam3	1	1.22e5	6129	inactive
Dscam3	2	1.08e5	6907	inactive
CG7791	1	86436	3797	inactive
prel	1	2850	203	inactive
Rbbp5 + CG6434 (retired record)	1	1.28e5	6309	inactive
